{"source": "paper PMC5996148", "experiment_in_all_cases": "protein microarray (ProtoArray v5.0), streptavidin-Alexa Fluor 647", "settings_in_all_cases": "3'-biotin; 20 mM Tris (pH 7.5), 5 mM MgCl2, 100 mM KCl, 0.1% Tween-20, A/T-rich and random oligonucleotide blockers; temperature not stated; high values mean tight binding", "key": {"[1]": {"test_system": "OSBPL9 (human)"}, "[2]": {"test_system": "OSTF1 (human)"}, "[3]": {"test_system": "OSTbeta (human)"}, "[4]": {"test_system": "OTUB1 (human)"}, "[5]": {"test_system": "OTUB2 (human)"}, "[6]": {"molecular_target": "T1, OTUD6B (UniProt Q8N6M0)", "T1 sequence": "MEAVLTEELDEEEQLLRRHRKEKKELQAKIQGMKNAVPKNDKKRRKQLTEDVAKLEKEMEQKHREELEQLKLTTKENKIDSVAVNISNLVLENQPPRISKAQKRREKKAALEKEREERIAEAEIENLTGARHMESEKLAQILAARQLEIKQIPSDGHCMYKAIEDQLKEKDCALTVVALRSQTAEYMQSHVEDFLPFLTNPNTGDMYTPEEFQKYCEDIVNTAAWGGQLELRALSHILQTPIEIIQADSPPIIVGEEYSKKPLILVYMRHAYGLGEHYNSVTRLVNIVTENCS"}, "[7]": {"test_system": "Olfactomedin-like protein 2B (human)"}, "[8]": {"test_system": "Olfactory receptor 3A1 (human)"}, "[9]": {"test_system": "Olfactory receptor 56B4 (human)"}, "[10]": {"test_system": "Optineurin (human)"}, "[11]": {"test_system": "Ornithine decarboxylase (human)"}, "[12]": {"test_system": "Osteocalcin (human)"}, "[13]": {"test_system": "P2RX1 (human)"}, "[14]": {"test_system": "P2RXL1 (human)"}, "[15]": {"test_system": "PADI3 (human)"}, "[16]": {"test_system": "PAFAH1B2 (human)"}, "[17]": {"test_system": "PAFAH1B3 (human)"}, "[18]": {"test_system": "PAGE2 (human)"}, "[19]": {"test_system": "PAGE5 (human)"}, "[20]": {"molecular_target": "T2, PAIP2 (UniProt Q9BPZ3)", "T2 sequence": "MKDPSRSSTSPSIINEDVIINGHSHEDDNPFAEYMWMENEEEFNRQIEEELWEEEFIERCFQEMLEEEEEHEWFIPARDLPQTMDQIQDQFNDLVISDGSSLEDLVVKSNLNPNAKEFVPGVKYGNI"}}, "note": "“And” between values parts separate entries of the source, which are not always exact repeats. Equal values may be shown once. This is one part of the list. For some assays here: Construct or isoform of the protein are uncertain."}
{"sequence": "GGGAGGCTGAGGCAGG [G4-1 biotinylated (PQS2)]", "values": [{"measurement": "binding signal", "setting": "[1]", "result": -0.337, "unit": "z-score"}, {"measurement": "binding signal", "setting": "[2]", "result": -0.33, "unit": "z-score"}, {"measurement": "binding signal", "setting": "[3]", "result": -0.354, "unit": "z-score"}, {"measurement": "binding signal", "setting": "[4]", "result": "-0.289 z-score and -0.351 z-score"}, {"measurement": "binding signal", "setting": "[5]", "result": -0.346, "unit": "z-score"}, {"measurement": "binding signal", "setting": "[6]", "result": 8.13, "unit": "z-score"}, {"measurement": "binding signal", "setting": "[7]", "result": -0.303, "unit": "z-score"}, {"measurement": "binding signal", "setting": "[8]", "result": -0.352, "unit": "z-score"}, {"measurement": "binding signal", "setting": "[9]", "result": -0.31, "unit": "z-score"}, {"measurement": "binding signal", "setting": "[10]", "result": -0.355, "unit": "z-score"}, {"measurement": "binding signal", "setting": "[11]", "result": -0.353, "unit": "z-score"}, {"measurement": "binding signal", "setting": "[12]", "result": -0.333, "unit": "z-score"}, {"measurement": "binding signal", "setting": "[13]", "result": -0.307, "unit": "z-score"}, {"measurement": "binding signal", "setting": "[14]", "result": -0.31, "unit": "z-score"}, {"measurement": "binding signal", "setting": "[15]", "result": -0.317, "unit": "z-score"}, {"measurement": "binding signal", "setting": "[16]", "result": -0.367, "unit": "z-score"}, {"measurement": "binding signal", "setting": "[17]", "result": -0.325, "unit": "z-score"}, {"measurement": "binding signal", "setting": "[18]", "result": -0.341, "unit": "z-score"}, {"measurement": "binding signal", "setting": "[19]", "result": -0.346, "unit": "z-score"}, {"measurement": "binding signal", "setting": "[20]", "result": -0.294, "unit": "z-score"}]}
